Hit rate of the full screen: of about 350,000 compounds, about 1,200 (0.34%) were called active. Roughly 3% stayed inconclusive and do not appear here. Calls come from the whole dose curve; as a rule, active = well fitted inhibition curve with a large enough effect; inconclusive = small, poorly fitted or top-dose-only effect; inactive = no such curve, though single readings can be large or run the other way. This is one part of the list.
target: DNA repair nuclease/redox regulator APEX1, Homo sapiens (UniProt P27695); experiment: qHTS Assay for Inhibitors of the Human Apurinic/apyrimidinic Endonuclease 1 (APE1)

The chains behind the UniProt entries cited, without tags or fusion partners. A line that says so, or that is headed by a name, gives the form on record, which may keep a tag or linker.
UniProt P27695, as listed by the source: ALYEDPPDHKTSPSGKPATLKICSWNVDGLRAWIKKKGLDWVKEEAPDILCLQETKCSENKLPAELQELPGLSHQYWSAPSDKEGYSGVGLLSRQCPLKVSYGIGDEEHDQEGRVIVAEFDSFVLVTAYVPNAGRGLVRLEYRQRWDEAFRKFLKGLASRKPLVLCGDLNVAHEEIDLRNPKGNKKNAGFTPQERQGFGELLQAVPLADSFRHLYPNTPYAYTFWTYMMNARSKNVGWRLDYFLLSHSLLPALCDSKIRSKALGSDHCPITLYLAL

SMILES	outcome
CCCC[N+](CCCC)(CCCC)CCCC.O=c1ccn([C@@H]2O[C@H](COS(=O)(=O)[O-])[C@@H](O)[C@H]2O)c(=O)[nH]1	inactive

Reference: the GenesisPotency data set
